Values quoted from earlier work, collected in patent US7112680B2, “Heterocyclic hydrazones for use as anti-cancer agents” (Austria Wirtschaftsservice Gesellschaft MIT Beschrankter …, priority 2000, dated 2006).
Some of these results come from one statement about several compounds together.

Tested on: panel of human tumor cell lines
Settings: in vitro; Easmon et al., Eur. J. Med. Chem., 32, 397, 1997; cited from earlier work

Structure (SMILES)	activity relative to thiosemicarbazones (1) and (2)
C(=N\Nc1nccs1)/c1ccccn1 [(3)]	5 to 10 times
C/C(=N\Nc1nccs1)c1ccccn1 [(5)]	5 to 10 times
